Results deposited as PubChem BioAssay AID1259254 (NCATS, 2017).

Screen: 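Gene knock-downs that lead to re-replication, shown by excess G2 DNA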 (primary screen)
Cell system: human HCT116 colorectal cancer cells
Reagents: single siRNA against human genes
Time to read-out: 3 days
Read-out: 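Imaged Hoechst DNA stain sorts each cell into a cycle phase by DNA amount; per plate, G2 fraction set to 0% for non-targeting and 100% for GMNN siRNA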
Direction: G2 robust z-score and G2 cells, % of GMNN control: higher = more G2 cells, more excess DNA replication; raw share of cells in G2: higher = larger share of cells with G2 DNA content
Hit rule: 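Active siRNAs have a G2 robust z of 5 or more median absolute deviations over the median, which in these data means about 38% or higher of GMNN control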
The whole screen tested about 59,000 reagents; below is a random part of them. About 1,550 of them (2.6%) were called active. 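G2 share is only a proxy for re-replication; each gene was hit by three separate siRNAs, and active genes were retested.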 The raw values are shown without normalisation. A number with no mark means an inactive call. Reagents against one gene are numbered here. Not stated in the record: the amount of reagent.

Target gene,reagent no.,G2 robust z-score,"G2 cells, % of GMNN control",raw share of cells in G2 (%)
SFT2D3 (SFT2 domain containing 3),1,-0.703,-1.98,3.45
SFT2D3 (SFT2 domain containing 3),2,0.226,4.56,4.81
SFT2D3 (SFT2 domain containing 3),3,-0.235,1.32,2.8
LOC642696,1,-0.249,1.22,4.1
LOC642696,2,-0.00875,2.91,4.32
LOC642696,3,0.0729,3.48,4.16
SLC29A4,1,-0.0409,2.68,7.24
SLC29A4,2,-0.072,2.46,5.6
SLC29A4,3,-1.03,-4.31,2.89
CD180 (CD180 molecule),1,-0.44,-0.127,5.42
CD180 (CD180 molecule),2,-0.912,-3.45,4.03
CD180 (CD180 molecule),3,-0.882,-3.24,2.13
BRCA2 (BRCA2 DNA repair associated),1,0.221,4.52,6.68
BRCA2 (BRCA2 DNA repair associated),2,0.869,9.08,7.81
BRCA2 (BRCA2 DNA repair associated),3,2.38,19.7,11.3
GMIP (GEM interacting protein),1,0.957,9.7,10.4
GMIP (GEM interacting protein),2,-1.09,-4.67,2.52
GMIP (GEM interacting protein),3,-0.119,2.13,4.62
NAV1 (neuron navigator 1),1,-0.494,-0.512,3.87
NAV1 (neuron navigator 1),2,0.68,7.75,5.43
NAV1 (neuron navigator 1),3,-0.262,1.12,3.28

7 entries already listed, ordered by “G2 robust z-score”, low to high:
Target gene,reagent no.,G2 robust z-score,"G2 cells, % of GMNN control",raw share of cells in G2 (%)
SLC29A4,3,-1.03,-4.31,2.89
CD180 (CD180 molecule),2,-0.912,-3.45,4.03
CD180 (CD180 molecule),3,-0.882,-3.24,2.13
CD180 (CD180 molecule),1,-0.44,-0.127,5.42
SLC29A4,2,-0.072,2.46,5.6
SLC29A4,1,-0.0409,2.68,7.24
BRCA2 (BRCA2 DNA repair associated),1,0.221,4.52,6.68

The listing continues:
Target gene,reagent no.,G2 robust z-score,"G2 cells, % of GMNN control",raw share of cells in G2 (%)
"CAPG (capping actin protein, gelsolin like)",1,0.783,8.48,6.84
"CAPG (capping actin protein, gelsolin like)",2,-0.218,1.43,5.97
"CAPG (capping actin protein, gelsolin like)",3,3.37,26.7,13.9
MAP3K20 (mitogen-activated protein kinase kinase kinase 20),1,-1.58,-8.17,3.05
MAP3K20 (mitogen-activated protein kinase kinase kinase 20),2,1.1,10.7,9.09
MAP3K20 (mitogen-activated protein kinase kinase kinase 20),3,0.18,4.23,5.04
POLR3G (RNA polymerase III subunit G),1,1.76,15.3,12.5
POLR3G (RNA polymerase III subunit G),2,0.56,6.91,6.08
POLR3G (RNA polymerase III subunit G),3,-0.173,1.75,6.46
HNRNPUL1 (heterogeneous nuclear ribonucleoprotein U like 1),1,4.84,37.1,16.6
HNRNPUL1 (heterogeneous nuclear ribonucleoprotein U like 1),2,0.523,6.65,6.14
HNRNPUL1 (heterogeneous nuclear ribonucleoprotein U like 1),3,-0.0246,2.79,7.49
CNOT1 (CCR4-NOT transcription complex subunit 1),1,-1.32,-6.3,1.43
CNOT1 (CCR4-NOT transcription complex subunit 1),2,-1.22,-5.6,3.49
CNOT1 (CCR4-NOT transcription complex subunit 1),3,-0.957,-3.77,1.76
"PFKFB3 (6-phosphofructo-2-kinase/fructose-2,6-biphosphatase 3)",1,1.21,11.5,8.54
"PFKFB3 (6-phosphofructo-2-kinase/fructose-2,6-biphosphatase 3)",2,0.356,5.47,5.95
"PFKFB3 (6-phosphofructo-2-kinase/fructose-2,6-biphosphatase 3)",3,-0.673,-1.77,2.96
FAP (fibroblast activation protein alpha),1,-0.953,-3.74,4.26
FAP (fibroblast activation protein alpha),2,0.356,5.47,6.84
FAP (fibroblast activation protein alpha),3,-0.427,-0.0371,3.9
OR10X1 (olfactory receptor family 10 subfamily X member 1),1,1.99,17,10.6
OR10X1 (olfactory receptor family 10 subfamily X member 1),2,-0.0304,2.75,3.98
OR10X1 (olfactory receptor family 10 subfamily X member 1),3,0.15,4.02,4.04
PRAME-AS (PRAME antisense RNA),1,1.97,16.9,10.7
PRAME-AS (PRAME antisense RNA),2,0.0451,3.28,4.39
PRAME-AS (PRAME antisense RNA),3,-0.202,1.54,3.24
